Test results from patent US20220273713A1, “METHOD OF INHIBITING OR ACTIVATING GAMMA DELTA T CELLS” (The University of Melbourne, priority 2019, published 2022).
Results are given in words; binding and its absence hold for the method and conditions named. Some binding calls cover weakened binding; strength is not graded here.

Molecular target: T1, human BTNL8, isoform 1, on cells (human) (UniProt Q6UX41)
T1 sequence (looked up): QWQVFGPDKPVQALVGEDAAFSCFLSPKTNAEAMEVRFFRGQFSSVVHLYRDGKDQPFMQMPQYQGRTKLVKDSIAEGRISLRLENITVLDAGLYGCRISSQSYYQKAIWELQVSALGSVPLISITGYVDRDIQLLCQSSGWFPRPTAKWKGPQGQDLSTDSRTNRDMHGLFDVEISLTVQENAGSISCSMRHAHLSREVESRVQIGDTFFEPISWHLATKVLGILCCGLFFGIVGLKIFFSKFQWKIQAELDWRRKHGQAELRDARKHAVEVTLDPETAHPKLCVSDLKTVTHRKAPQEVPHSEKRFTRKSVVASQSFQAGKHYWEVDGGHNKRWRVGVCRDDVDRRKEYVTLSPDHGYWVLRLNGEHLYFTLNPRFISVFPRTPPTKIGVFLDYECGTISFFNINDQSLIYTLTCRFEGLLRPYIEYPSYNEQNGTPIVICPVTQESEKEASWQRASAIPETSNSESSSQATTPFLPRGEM
Experiment: FRET between C-terminal CFP/YFP tags on co-transfected NIH-3T3 cells, flow cytometry (FIG. 5D, FIG. 20A)

binding: binds
B1: human BTNL3 (butyrophilin-like molecule 3), isoform 1, on cells (ligand, UniProt Q6UXE8 18-466, looked up)
chain: QWQVTGPGKFVQALVGEDAVFSCSLFPETSAEAMEVRFFRNQFHAVVHLYRDGEDWESKQMPQYRGRTEFVKDSIAGGRVSLRLKNITPSDIGLYGCWFSSQIYDEEATWELRVAALGSLPLISIVGYVDGGIQLLCLSSGWFPQPTAKWKGPQGQDLSSDSRANADGYSLYDVEISIIVQENAGSILCSIHLAEQSHEVESKVLIGETFFQPSPWRLASILLGLLCGALCGVVMGMIIVFFKSKGKIQAELDWRRKHGQAELRDARKHAVEVTLDPETAHPKLCVSDLKTVTHRKAPQEVPHSEKRFTRKSVVASQGFQAGKHYWEVDVGQNVGWYVGVCRDDVDRGKNNVTLSPNNGYWVLRLTTEHLYFTFNPHFISLPPSTPPTRVGVFLDYEGGTISFFNTNDQSLIYTLLTCQFEGLLRPYIQHAMYDEEKGTPIFICPVSWG
